Assay: SRC3 coactivator transcriptional activity inhibitors, dose response, counter-screen for SRC1 inhibitor project, cell-based, luminescence (AID 602234);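 further: HEK293 cells co-transfected with pGL4.31 reporter and pBIND-SRC3 fusion vector; potency for inhibition of reporter luminescence with Gossypol as full inhibition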
Conditions: transfected HEK293 cells, counter-screen luciferase reporter

CN(C)C(=O)c1cccc(COc2ccc(N3C(N)=NC(N)=NC3(C)C)cc2Cl)c1
IC50: 7.48 µM
